# Assay results taken from PubChem BioAssay AID504847 (National Center for Advancing Translational Sciences (NCATS), 2011).
# Amino acid sequences for entries named in this document (tags omitted). A change or cut given only in a name is not applied to a line headed by its entry.
# UniProt P11473: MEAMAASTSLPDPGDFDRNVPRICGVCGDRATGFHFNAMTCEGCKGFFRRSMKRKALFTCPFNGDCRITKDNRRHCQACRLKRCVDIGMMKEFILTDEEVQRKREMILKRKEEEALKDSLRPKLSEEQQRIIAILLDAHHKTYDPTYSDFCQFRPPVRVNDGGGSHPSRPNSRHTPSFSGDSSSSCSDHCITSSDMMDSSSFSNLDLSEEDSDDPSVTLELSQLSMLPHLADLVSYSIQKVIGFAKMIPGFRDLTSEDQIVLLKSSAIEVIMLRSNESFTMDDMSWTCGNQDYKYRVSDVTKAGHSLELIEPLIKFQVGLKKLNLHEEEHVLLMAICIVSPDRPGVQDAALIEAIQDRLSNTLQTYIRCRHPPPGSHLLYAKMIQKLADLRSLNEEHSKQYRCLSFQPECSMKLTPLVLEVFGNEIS
# “And” between values parts separate entries of the source, which are not always exact repeats. Equal entries are not always repeated. The whole screen tested about 400,000 compounds, of which about 3,700 (0.93%) were called active. Inconclusive means that the source gave no clear call. Such entries were picked first, then a sample of the others. Calls follow the shape of the dose curve; as a rule, active = well fitted inhibition curve with a large enough effect; inconclusive = small, poorly fitted or top-dose-only effect, or another doubt; inactive = no such curve, though single readings can be large or run the other way. A potency beside an inconclusive call is a rough fit, not a confirmed value.
# Molecular target: Vitamin D3 receptor (Homo sapiens) (UniProt P11473)
# Experiment: Inhibitors of the vitamin D receptor (VDR): qHTS
# Conditions: VDR-SRC2-3 peptide fluorescence polarization, 2 h; max response, negative = inhibition: stronger effect = lower value
# Outline: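 Fluorescence polarization assay of small-molecule disruption of VDR binding to coregulator peptide SRC2-3. Compounds and controls pin-transferred, then read after 2 h incubation at ambient room temperature.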
# % is scaled to controls: 0 for no effect and ±100 for the full control effect; potency is read from the fitted curve at half-maximal effect.
Compound,"max response, negative = inhibition",Potency
Cc1ccc2[nH]c(=O)c(CN(Cc3ccccc3)Cc3nnnn3Cc3ccco3)cc2c1,inactive: -16.8%,
CCCCN(C(=O)C1CC(=O)N(Cc2ccc(C)cc2)C1)c1c(N)n(CCCC)c(=O)[nH]c1=O (configuration not stated),,"inconclusive: 100 µM [inhibitor, single point]"
Cc1cc(C)nc(/N=C(\N)Nc2cccc([N+](=O)[O-])c2)n1,inactive: 0.182%,
CN1C(=O)/C(=C\C(=O)c2cccs2)c2ccccc21,,active: 28.2 µM
COc1cc(C2SCC(=O)N2CCCN(C)C)cc(OC)c1OC (configuration not stated),,"inconclusive: 89.1 µM [inhibitor, single point]"
Cc1ccc(/C=C/C(=O)c2ccccc2O)cc1,,"inconclusive: 56.2 µM [inhibitor, partial curve, poor fit]"
CCc1ccc(NC(=S)Nc2cccc3cnccc23)cc1,,"inconclusive: 89.1 µM [inhibitor, single point]"
Cc1ccc(CN(C)C(=O)CSc2nnc3n2CCCCC3)c(C)c1,inactive: -8.11%,
CN(C)c1ccc(-c2nc(-n3ccnc3)c3ccccc3n2)cc1,,active: 25.1 µM
Nc1ccccc1SCc1csc(-c2ccc(Cl)cc2)n1,,"inconclusive: 100 µM [inhibitor, single point]"
CCOc1ccc(-c2nnc(N3CCCCC3)c3ccccc23)cc1,inactive: 2.77%,
NC(=O)NC(=O)COC(=O)c1ccc2c(c1)C(=O)N(Cc1ccccc1)C2=O,,"inconclusive: 89.1 µM [inhibitor, single point]"
Cn1c(=O)c(=O)n(C)c2cc(S(=O)(=O)CCC(=O)Nc3ccc(F)cc3)ccc21,inactive: 4.56% and inactive: -2.97%,
O=Cc1ccc(Sc2nnc(-c3ccccc3)o2)c([N+](=O)[O-])c1,,active: 79.4 µM
CC(=O)c1ccc(N2CCN(CC(O)COC(c3ccccc3)c3ccccc3C)CC2)cc1 (configuration not stated),,"inconclusive: 79.4 µM [inhibitor, single point]"
O=C1c2ccccc2NC(c2ccc3c(c2)OCO3)N1Cc1ccco1 (configuration not stated),,"inconclusive: 79.4 µM [inhibitor, partial curve, poor fit]"
C=C(C)CNC(=S)N/N=C(\C)c1cccc(NC(C)=O)c1,inactive: -3.34%,
CN(C)S(=O)(=O)c1cc(NC(=O)COC(=O)/C=C/c2ccco2)ccc1Cl,,"inconclusive: 39.8 µM [inhibitor, full curve, poor fit]"
CCCCOCCCNC(=O)N[C@@H](CC(C)C)C(=O)O,inactive: 2.46%,
COc1ccc(OC)c(C2CC(c3c(-c4ccccc4)c4cc(Cl)ccc4[nH]c3=O)=NN2S(C)(=O)=O)c1 (configuration not stated),inactive: 7.37%,
Cc1ccc(C(=O)c2cnc3cc4c(cc3c2S(=O)(=O)c2ccccc2)OCCO4)cc1,inactive: -11.7%,
CCOCC(=O)Nc1cc(S(=O)(=O)N2CCOCC2)ccc1N1CCCCC1,,"inconclusive: 79.4 µM [inhibitor, partial curve, poor fit]"
CC(C)CNS(=O)(=O)c1ccc(CCC(=O)NCc2ccncc2)cc1,,"inconclusive: 100 µM [inhibitor, partial curve, poor fit]"

Compound,"max response, negative = inhibition",Potency
O=C(Nc1ccc(S(=O)(=O)Nc2ncccn2)cc1)c1ccc2ncsc2c1,inactive: -9.32%,
O=c1oc2ccccc2c2c1SC(C(F)(F)F)C2 (configuration not stated),,"inconclusive: 5.01 µM [inhibitor, partial curve, poor fit]"
O=C(CN1CCN(c2ccc(F)cc2)CC1)Nc1ccccc1[N+](=O)[O-],,"inconclusive: 70.8 µM [inhibitor, single point]"
Cc1sc(N)nc1-c1cccc([N+](=O)[O-])c1,inactive: 1.23%,
COc1cccc(-c2nc(CS(=O)(=O)CC(=O)Nc3cccc(C(C)=O)c3)c(C)o2)c1,,"inconclusive: 39.8 µM [inhibitor, partial curve, poor fit]"
CC1=C([N+](=O)[O-])C(c2ccc3c(c2)OCO3)N(C)C(=O)N1C (configuration not stated),,"inconclusive: 22.4 µM [inhibitor, partial curve, poor fit]"
Cc1c(CC(=O)NCCCC(=O)O)c(=O)oc2cc3c(cc12)CCC(C)(C)O3,,"inconclusive: 12.6 µM [inhibitor, partial curve, poor fit]"
Cc1ccc(Nc2ncnc3ccccc23)cc1,,"inconclusive: 89.1 µM [inhibitor, single point]"
Cc1[nH]nc2c1C(Cc1ccccc1)C(C#N)=C(N)O2 (configuration not stated),inactive: -8.99%,
O=C(Nc1ccccc1F)c1cnc(N2CCCCC2)c2ccccc12,,"inconclusive: 39.8 µM [inhibitor, single point]"
Oc1ccc(Cl)cc1/C=N/c1nccs1,inactive: 3.6%,
CCOC(=O)c1[nH]cnc1C(=O)Nc1ccncc1,inactive: -1.9%,
Cc1ccc(S(=O)(=O)N2CCCC2C(=O)N2CCCCCC2)cc1 (configuration not stated),,"inconclusive: 89.1 µM [inhibitor, partial curve, poor fit]"
Cc1ccc(O)c(NC(=O)CCS(=O)(=O)c2nc(-c3cccs3)cc(C(F)(F)F)n2)c1,,active: 20 µM
Cc1cccc(-n2c(C)nc3cc(C(=O)N4CCOCC4)ccc32)c1,,"inconclusive: 12.6 µM [inhibitor, partial curve]"
CCOc1cccc(C(=O)NC(c2ccccc2)C(C)C)c1 (configuration not stated),,"inconclusive: 56.2 µM [inhibitor, partial curve, poor fit]"
CC(=O)N1c2ccc(S(=O)(=O)NCCC(=O)Nc3ccc(OC(F)(F)F)cc3)cc2CC1C (configuration not stated),,"inconclusive: 35.5 µM [inhibitor, partial curve, poor fit]"
CCCC(=O)OC/C(O)=C(\C#N)c1nc2ccccc2[nH]1,inactive: 6.14%,
O=C1Nc2ccccc2SC1c1ccccc1 (configuration not stated),,"inconclusive: 50.1 µM [inhibitor, partial curve, poor fit]"
COC(=O)C1CCN(C(=O)/C=C/c2ccc3c(c2)OCO3)CC1,,"inconclusive: 50.1 µM [inhibitor, partial curve, poor fit]"
CC(C)n1ncc2c(C(=O)O)cc(C3CC3)nc21,,"inconclusive: 39.8 µM [inhibitor, single point]"
O=C(Nc1cccc(-n2cccn2)c1)C1CCCN(Cc2cc3ccccc3[nH]2)C1 (configuration not stated),,"inconclusive: 39.8 µM [inhibitor, partial curve, poor fit]"
O=C(C1=C(O)C(=O)N(CC2CCCO2)C1c1ccccc1F)c1ccco1 (configuration not stated),inactive: -7.87%,

Compound,"max response, negative = inhibition",Potency
O=C(O)Cn1c(O)c(C2=c3ccccc3=NC2=O)sc1=O,,active: 10 µM
Cc1ccc2[nH]c3c(c2c1)CN(C(=O)CN1CC(C)OC(C)C1)CC3 (configuration not stated),inactive: -8.24%,
O=C(/C=C/c1ccc(O)cc1)c1ccc(NC2=C(N3CCCCC3)C(=O)c3ccccc3C2=O)cc1,,"inconclusive: 79.4 µM [inhibitor, partial curve, poor fit]"
O=C(NCCc1ccccc1)c1ccc2c(c1)N(Cc1ccc(Cl)cc1)C(=O)c1ccccc1S2(=O)=O,,"inconclusive: 79.4 µM [inhibitor, partial curve]"
Cc1ccc(N2CC(NC(=O)CCCc3ccccc3)CC2=O)cc1 (configuration not stated),inactive: -6.04%,
CCc1ccccc1NC(=O)c1ccc2c(O)c(S(=O)(=O)c3ccc(OC)cc3)c(=O)[nH]c2c1,,"inconclusive: 31.6 µM [inhibitor, partial curve, poor fit]"
O=C(Nc1ccc(OC(F)F)c(Cl)c1)C(c1ccccc1)c1ccccc1,inactive: -24%,
COc1cc(/C=C2/C(=O)NN(c3ccccc3)C2=O)cc(Br)c1O,,"inconclusive: 50.1 µM [inhibitor, partial curve]"
Cn1ncc2c(=S)nc(Cl)[nH]c21,,"inconclusive: 79.4 µM [inhibitor, partial curve, poor fit]"
COc1cccc(-c2nc(NCc3ccccc3)c3ccccc3n2)c1,,"inconclusive: 44.7 µM [inhibitor, full curve]"
COc1cc(/C=N/n2cnn(Cc3ccccc3Cl)c2=S)cc(OC)c1OC,,"inconclusive: 89.1 µM [inhibitor, single point]"
CCC1Nc2ncnc(N3CCc4ccccc4C3)c2N(Cc2ccc(Cl)cc2)C1=O (configuration not stated),,"inconclusive: 15.8 µM [inhibitor, full curve, poor fit]"
O=C1Nc2ccccc2/C1=C\C(=O)c1ccccc1,,"inconclusive: 31.6 µM [inhibitor, full curve, poor fit]"
O=C1C(Cl)=C(N2CCC(C(=O)O)CC2)C(=O)c2ccccc21,,"inconclusive: 50.1 µM [inhibitor, partial curve]"
O=C(CCS(=O)(=O)c1ccc2c(c1)NC(=O)CO2)NCCc1ccccc1,,"inconclusive: 20 µM [inhibitor, partial curve]"
COC(=O)c1c(C(=O)OC)c(-c2ccc(Cl)cc2)n2c1CS(=O)(=O)C2,,"inconclusive: 31.6 µM [inhibitor, single point]"
COC(=O)c1c(NC(C)=O)sc(C(=O)Nc2ccccc2)c1C,inactive: -2.14%,
CCCCN1Cc2cc(C(=O)c3cc(F)ccc3O)cnc2NC1=O,,"inconclusive: 70.8 µM [inhibitor, partial curve, poor fit]"
C/C(=N\Nc1ccc(C(F)(F)F)cc1[N+](=O)[O-])C1CC1,inactive: -4.88%,
O=C(Nc1cccnc1)Nc1cccc([N+](=O)[O-])c1,,"inconclusive: 89.1 µM [inhibitor, single point]"
Cn1c(CS/C(N)=N/N=C/c2ccccc2)c(Br)c(=O)n1-c1ccccc1,,active: 50.1 µM

# 5 of these compounds, reformatted.
Compound	max response, negative = inhibition	Potency
O=C1C(Cl)=C(N2CCC(C(=O)O)CC2)C(=O)c2ccccc21		inconclusive: 50.1 µM [inhibitor, partial curve]
O=C(CCS(=O)(=O)c1ccc2c(c1)NC(=O)CO2)NCCc1ccccc1		inconclusive: 20 µM [inhibitor, partial curve]
COC(=O)c1c(C(=O)OC)c(-c2ccc(Cl)cc2)n2c1CS(=O)(=O)C2		inconclusive: 31.6 µM [inhibitor, single point]
COC(=O)c1c(NC(C)=O)sc(C(=O)Nc2ccccc2)c1C	inactive: -2.14%	
CCCCN1Cc2cc(C(=O)c3cc(F)ccc3O)cnc2NC1=O		inconclusive: 70.8 µM [inhibitor, partial curve, poor fit]
